# Assay results from the supplement of paper PMC12067093, “Discovery and optimisation of a covalent ligand for TRIM25 and its application to targeted protein ubiquitination” (Chemical Science, 2025).
# The chains behind the UniProt entries cited, without tags or fusion partners. Where a name states a change or a piece, a line headed by the entry shows the natural chain unless it says otherwise.
# UniProt Q15326: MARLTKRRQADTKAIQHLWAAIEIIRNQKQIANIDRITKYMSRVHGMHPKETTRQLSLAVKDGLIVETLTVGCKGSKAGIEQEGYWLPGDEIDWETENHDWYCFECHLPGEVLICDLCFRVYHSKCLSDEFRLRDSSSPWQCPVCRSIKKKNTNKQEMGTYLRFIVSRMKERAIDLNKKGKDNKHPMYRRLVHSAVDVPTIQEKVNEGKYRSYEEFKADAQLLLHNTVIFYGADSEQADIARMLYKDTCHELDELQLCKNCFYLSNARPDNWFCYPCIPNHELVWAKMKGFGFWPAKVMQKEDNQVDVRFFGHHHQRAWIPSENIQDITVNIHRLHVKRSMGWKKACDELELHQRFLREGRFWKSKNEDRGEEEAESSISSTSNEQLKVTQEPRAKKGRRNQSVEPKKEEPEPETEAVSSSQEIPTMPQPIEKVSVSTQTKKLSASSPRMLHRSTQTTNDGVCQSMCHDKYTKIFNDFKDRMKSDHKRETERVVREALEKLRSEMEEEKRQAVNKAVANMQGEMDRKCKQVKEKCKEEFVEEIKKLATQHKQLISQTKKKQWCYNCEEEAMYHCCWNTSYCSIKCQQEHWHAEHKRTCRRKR
# UniProt Q9Y3S2: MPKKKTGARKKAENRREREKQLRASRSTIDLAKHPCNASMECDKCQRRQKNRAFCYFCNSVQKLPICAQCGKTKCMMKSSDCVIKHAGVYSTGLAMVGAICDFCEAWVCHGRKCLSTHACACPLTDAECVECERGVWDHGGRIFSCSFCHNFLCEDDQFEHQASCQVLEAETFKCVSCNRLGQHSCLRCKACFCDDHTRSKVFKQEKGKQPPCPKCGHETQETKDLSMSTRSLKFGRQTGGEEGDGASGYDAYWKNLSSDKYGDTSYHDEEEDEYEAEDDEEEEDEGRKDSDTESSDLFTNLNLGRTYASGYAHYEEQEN
# UniProt Q9ULU4: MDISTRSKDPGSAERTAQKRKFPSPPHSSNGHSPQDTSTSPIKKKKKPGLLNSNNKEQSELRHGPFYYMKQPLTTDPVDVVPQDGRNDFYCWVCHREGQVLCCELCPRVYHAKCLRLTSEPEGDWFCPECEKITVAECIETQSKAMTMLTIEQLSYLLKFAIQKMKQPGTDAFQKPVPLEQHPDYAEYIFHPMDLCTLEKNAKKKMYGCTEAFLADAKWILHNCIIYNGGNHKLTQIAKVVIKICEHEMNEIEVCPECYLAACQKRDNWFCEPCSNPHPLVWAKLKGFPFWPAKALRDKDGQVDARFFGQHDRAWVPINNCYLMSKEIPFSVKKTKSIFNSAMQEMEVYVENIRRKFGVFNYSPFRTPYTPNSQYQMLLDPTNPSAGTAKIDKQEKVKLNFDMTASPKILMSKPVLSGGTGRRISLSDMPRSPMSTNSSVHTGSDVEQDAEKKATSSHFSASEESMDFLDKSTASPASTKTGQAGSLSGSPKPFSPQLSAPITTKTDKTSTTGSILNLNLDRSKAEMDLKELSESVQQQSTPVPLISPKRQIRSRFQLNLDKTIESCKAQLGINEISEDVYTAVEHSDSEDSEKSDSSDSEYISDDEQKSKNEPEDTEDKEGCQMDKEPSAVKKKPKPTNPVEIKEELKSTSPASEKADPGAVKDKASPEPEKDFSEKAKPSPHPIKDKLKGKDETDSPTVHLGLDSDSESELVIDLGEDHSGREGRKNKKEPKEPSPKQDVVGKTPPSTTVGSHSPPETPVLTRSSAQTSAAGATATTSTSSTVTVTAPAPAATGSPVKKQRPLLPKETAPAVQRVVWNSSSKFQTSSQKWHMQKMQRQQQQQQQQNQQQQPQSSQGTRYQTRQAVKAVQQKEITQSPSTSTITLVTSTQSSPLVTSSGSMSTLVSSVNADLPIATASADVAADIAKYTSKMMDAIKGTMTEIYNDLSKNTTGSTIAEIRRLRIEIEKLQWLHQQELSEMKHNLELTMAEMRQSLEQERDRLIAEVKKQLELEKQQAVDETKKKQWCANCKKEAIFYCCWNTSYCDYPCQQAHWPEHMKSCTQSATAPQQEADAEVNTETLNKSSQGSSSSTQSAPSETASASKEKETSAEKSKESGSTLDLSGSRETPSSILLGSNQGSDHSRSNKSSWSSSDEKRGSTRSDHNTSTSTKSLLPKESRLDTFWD
# UniProt Q5VV52: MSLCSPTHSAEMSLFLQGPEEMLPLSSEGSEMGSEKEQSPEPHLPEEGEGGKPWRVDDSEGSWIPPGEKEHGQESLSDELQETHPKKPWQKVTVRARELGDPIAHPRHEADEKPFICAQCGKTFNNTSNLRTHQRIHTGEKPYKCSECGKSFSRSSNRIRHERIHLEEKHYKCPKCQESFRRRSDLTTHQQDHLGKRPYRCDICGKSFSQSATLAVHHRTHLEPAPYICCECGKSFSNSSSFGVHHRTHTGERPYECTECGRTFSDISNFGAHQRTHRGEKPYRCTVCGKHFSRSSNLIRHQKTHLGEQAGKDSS
# UniProt Q9H2Y7: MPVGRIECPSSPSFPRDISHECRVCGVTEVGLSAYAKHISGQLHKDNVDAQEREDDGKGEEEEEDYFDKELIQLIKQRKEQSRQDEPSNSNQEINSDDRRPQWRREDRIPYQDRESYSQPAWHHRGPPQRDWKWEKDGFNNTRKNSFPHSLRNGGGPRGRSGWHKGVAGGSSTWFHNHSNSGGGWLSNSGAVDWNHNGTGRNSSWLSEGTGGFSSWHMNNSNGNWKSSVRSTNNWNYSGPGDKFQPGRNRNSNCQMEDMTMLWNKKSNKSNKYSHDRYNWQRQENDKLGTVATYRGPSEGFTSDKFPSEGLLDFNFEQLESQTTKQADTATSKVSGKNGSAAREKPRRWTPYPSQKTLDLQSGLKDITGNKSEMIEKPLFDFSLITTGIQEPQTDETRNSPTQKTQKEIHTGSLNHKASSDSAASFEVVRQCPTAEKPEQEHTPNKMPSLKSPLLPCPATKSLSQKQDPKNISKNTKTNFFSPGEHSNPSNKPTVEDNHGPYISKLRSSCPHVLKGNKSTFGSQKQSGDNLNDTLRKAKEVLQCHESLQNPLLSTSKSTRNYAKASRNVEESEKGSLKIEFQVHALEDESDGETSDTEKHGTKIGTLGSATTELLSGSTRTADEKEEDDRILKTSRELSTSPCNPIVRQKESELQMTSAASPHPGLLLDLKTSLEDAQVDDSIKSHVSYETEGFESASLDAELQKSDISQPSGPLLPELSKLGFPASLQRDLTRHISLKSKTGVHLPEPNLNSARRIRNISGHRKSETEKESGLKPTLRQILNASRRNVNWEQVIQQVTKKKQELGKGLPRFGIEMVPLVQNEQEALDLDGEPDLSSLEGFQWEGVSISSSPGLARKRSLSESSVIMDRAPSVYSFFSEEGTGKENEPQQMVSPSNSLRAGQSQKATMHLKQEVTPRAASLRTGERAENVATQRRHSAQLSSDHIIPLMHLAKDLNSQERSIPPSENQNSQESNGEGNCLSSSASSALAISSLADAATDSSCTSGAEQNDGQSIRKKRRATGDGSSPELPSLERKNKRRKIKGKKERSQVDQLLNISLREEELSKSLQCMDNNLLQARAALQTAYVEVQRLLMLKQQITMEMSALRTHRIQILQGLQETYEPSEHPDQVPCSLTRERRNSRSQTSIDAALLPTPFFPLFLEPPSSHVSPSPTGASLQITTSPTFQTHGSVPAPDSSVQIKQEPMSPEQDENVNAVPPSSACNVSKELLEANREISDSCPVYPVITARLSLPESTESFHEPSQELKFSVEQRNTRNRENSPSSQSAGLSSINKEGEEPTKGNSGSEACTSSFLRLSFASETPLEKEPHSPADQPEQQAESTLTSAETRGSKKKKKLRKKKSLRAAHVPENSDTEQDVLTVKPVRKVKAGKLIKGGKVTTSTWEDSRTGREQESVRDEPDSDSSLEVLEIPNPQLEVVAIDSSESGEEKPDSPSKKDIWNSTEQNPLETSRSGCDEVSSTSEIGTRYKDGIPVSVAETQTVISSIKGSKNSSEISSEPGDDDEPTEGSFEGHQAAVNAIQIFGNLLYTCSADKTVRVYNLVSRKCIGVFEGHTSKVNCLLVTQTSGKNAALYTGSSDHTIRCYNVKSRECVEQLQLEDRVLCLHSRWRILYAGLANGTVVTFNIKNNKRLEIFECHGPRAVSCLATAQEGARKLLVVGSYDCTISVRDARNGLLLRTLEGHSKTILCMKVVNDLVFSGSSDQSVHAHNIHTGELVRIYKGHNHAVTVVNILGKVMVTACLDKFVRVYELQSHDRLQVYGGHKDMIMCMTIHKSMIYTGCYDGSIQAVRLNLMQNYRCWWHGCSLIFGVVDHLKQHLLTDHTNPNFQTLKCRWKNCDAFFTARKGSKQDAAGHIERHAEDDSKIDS
# UniProt Q96K21: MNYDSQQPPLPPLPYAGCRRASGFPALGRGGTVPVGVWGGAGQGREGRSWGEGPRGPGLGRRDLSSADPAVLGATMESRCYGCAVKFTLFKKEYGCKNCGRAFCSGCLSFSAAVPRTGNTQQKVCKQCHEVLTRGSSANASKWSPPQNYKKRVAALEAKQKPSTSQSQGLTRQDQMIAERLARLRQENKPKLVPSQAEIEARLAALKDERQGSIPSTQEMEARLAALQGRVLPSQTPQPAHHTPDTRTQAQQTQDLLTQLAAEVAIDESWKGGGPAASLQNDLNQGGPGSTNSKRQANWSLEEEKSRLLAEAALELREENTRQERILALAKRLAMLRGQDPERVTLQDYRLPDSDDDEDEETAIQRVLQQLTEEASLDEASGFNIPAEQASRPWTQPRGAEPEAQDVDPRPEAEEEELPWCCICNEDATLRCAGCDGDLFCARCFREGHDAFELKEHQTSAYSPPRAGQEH
# UniProt Q96ME7: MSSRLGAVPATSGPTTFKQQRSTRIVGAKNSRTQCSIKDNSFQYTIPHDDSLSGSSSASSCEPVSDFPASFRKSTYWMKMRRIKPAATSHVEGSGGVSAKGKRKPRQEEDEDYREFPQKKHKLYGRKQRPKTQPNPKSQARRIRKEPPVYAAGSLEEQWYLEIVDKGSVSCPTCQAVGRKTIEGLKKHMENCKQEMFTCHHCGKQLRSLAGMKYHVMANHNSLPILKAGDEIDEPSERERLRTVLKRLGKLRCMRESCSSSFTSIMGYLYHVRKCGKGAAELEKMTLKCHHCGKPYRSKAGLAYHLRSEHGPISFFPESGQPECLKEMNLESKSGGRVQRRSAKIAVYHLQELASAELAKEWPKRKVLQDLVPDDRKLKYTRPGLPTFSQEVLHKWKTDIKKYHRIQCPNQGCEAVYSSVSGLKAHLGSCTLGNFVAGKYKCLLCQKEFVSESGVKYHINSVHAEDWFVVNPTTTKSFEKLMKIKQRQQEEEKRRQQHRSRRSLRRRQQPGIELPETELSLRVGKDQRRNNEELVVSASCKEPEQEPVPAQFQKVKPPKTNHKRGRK
# UniProt Q8NC26: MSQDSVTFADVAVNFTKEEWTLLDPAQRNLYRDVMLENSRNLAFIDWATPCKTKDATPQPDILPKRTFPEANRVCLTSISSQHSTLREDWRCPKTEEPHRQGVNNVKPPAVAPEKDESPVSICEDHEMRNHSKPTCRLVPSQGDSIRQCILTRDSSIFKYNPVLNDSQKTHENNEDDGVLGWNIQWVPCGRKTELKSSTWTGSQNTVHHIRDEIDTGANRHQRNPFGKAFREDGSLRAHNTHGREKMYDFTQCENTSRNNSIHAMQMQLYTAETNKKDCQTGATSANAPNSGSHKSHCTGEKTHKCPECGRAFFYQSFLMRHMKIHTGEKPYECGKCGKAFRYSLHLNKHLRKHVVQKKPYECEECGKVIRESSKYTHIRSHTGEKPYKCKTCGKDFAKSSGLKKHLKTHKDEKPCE
# UniProt P17017: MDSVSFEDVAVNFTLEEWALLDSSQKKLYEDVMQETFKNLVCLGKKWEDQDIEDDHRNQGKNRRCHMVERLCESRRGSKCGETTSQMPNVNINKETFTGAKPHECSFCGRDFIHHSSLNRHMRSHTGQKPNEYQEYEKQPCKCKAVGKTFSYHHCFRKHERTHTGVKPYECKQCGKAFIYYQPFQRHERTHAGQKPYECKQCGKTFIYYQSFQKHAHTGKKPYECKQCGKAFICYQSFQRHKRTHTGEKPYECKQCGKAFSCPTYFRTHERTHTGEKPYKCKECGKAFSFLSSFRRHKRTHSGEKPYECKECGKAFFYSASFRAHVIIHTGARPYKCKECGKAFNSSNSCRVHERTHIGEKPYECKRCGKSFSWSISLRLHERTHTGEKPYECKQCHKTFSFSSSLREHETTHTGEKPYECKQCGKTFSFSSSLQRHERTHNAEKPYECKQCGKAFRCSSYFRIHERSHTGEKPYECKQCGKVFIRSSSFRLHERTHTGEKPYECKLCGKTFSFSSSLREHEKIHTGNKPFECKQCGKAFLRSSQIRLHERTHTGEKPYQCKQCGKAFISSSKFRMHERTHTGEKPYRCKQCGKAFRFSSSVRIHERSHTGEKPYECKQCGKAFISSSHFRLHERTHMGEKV
# The other results are listed elsewhere or left out.
# Compound: CC1Cc2ccccc2N1C(=O)C1CCCN(C1)C(=O)CCl (mixture of isomers) [TRIM25 ligand 11 (diastereomer mixture)]
# Assay: probe-labelled cysteine peptide fold change vs DMSO (competition) (log2 fold change); higher = less target engagement (more negative = stronger competition)
# Settings: 50 µM; THP-1; incubation time: 4 h
# 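Further: competitive chemoproteomic profiling in live THP-1 cells with an iodoacetamide desthiobiotin (IA-DTB) probe, comparing probe-labelled peptide intensities in compound-treated cells against DMSO-treated controls.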
row,Target,probe-labelled cysteine peptide fold change
1,ZMYND11_Q15326_249+258_DTCHELDELQLCK (UniProt Q15326),0.191
2,ZNF330_Q9Y3S2_109_HAGVYSTGLAMVGAICDFCEAWVCHGR (UniProt Q9Y3S2),-0.0537
3,ZNF668_Q96K58_198_THAGLRPYSCER (UniProt Q96K58),0.173
4,ZFAND3_Q9H8U3_181_CGYVFCMLHR (UniProt Q9H8U3),-0.159
5,ZMYND11_Q15326_347_ACDELELHQR (UniProt Q15326),-0.0127
6,ZNF644_Q9H582_1233_MDLTMHSALDCK (UniProt Q9H582),-0.274
7,ZMYND8_Q9ULU4_103_EGQVLCCELCPR (UniProt Q9ULU4),-0.0752
8,ZMYND8_Q9ULU4_91_NDFYCWVCHR (UniProt Q9ULU4),0.0194
9,ZFPL1_O95159_230_DDDRTPGLHGDCDDDK (UniProt O95159),0.079
10,ZNF691_Q5VV52_232_THLEPAPYICCECGK (UniProt Q5VV52),-0.457
11,ZNF106_Q9H2Y7_1576_VNCLLVTQTSGK (UniProt Q9H2Y7),0.323
12,ZNF195_O14628_195_DWESLDECK (UniProt O14628),-0.231
13,ZFYVE19_Q96K21_435_CAGCDGDLFCAR (UniProt Q96K21),-0.152
14,ZNF292_O60281_2260_CDCEGCDR (UniProt O60281),0.0706
15,ZNF592_Q92610_790_ENCLHYAR (UniProt Q92610),0.113
16,ZFR_Q96KR1_391_CELCDVSCTGADAYAAHIR (UniProt Q96KR1),0.0195
17,ZNF512_Q96ME7_442_CLLCQK (UniProt Q96ME7),0.0979
18,ZNF114_Q8NC26_51_NLAFIDWATPCK (UniProt Q8NC26),0.0891
19,ZNF649_Q9BS31_183_AHECTDCGK (UniProt Q9BS31),0.285
20,ZNF101_Q8IZC7_321_CPTSLQAHER (UniProt Q8IZC7),-0.0291
21,ZNF14_P17017_42_NLVCLGK (UniProt P17017),0.0189
22,ZNF646_O15015_1193_GCQTEASSERPFSCEVCGR (UniProt O15015),-0.0689
23,ZNF106_Q9H2Y7_1307_GNSGSEACTSSFLR (UniProt Q9H2Y7),-0.0979
